Our source for the binding values is WO2010064456A1.

Experiment [1] has as its target T1, rhNR10 (human) (UniProt Q8NI17).
T1 sequence (looked up): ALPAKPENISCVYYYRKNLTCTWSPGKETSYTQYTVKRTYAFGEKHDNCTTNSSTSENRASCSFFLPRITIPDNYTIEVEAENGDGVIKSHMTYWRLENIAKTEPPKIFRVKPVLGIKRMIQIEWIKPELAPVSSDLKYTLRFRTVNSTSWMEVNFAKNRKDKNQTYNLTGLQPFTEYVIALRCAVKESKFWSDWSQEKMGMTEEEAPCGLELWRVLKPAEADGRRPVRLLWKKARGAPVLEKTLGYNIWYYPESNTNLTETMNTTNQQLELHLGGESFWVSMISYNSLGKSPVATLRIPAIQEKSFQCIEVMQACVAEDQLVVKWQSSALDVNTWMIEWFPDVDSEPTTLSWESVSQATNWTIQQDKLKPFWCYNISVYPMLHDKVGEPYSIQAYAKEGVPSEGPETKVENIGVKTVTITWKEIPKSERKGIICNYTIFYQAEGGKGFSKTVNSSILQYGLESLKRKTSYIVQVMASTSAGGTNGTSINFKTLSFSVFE
The experiment in a line: SPR (Biacore T100), antibody captured on Protein A, rhNR10 as analyte. (In general: In SPR one partner is held on a chip, and binding of the other changes the refractive index at the surface.)

The target of experiment [2] is T1, rhNR10 (human). The experiment in a line: SPR (Biacore), method of Example 7 (Reference Example 10).

Results are given in words; binding and its absence hold for the method and conditions named. Some entries that bind do so weakly or less than the wild type.

B1: Hp3Lp15 (H chain Hp3-SKSC, L chain Lp15) (antibody, V domains shown)
VH: QVQLVQSGAEVKKPGASVKVSCKASGYTFTGYIMNWVRQAPGQGLEWMGLINPYNGGTSYNQQFQDRVTITADESTSTAYMELSSLRSEDTAVYYCARDGYDDGPYTMDYWGQGTLVTVSS
VL: DIQMTQSPSSLSASVGDRVTITCQTSEDIYSFLAWYQQKPGKAPKLLIYNAQTEAQGVPSRFSGSGSGTDFTLTISSLQPEDFATYYCQHHYESPLTFGGGTKVEIKR
For B1, the binding entry in the experiment with rhNR10 (human) [1] was “binds”.

B2: H0L17 (H chain H0-M58, L chain L17) (antibody, V domains shown)
VH: QVQLVQSGAEVKKPGASVKVSCKASGYTFTGYIMNWVRQAPGQGLEWMGLINPYNGGTSYNQKFKGRVTITADESTSTAYMELSSLRSEDTAVYYCARDGYDDGPYTMDYWGQGTLVTVSS
VL: DIQMTQSPSSLSASVGDRVTITCQASEDIYSFVAWYQQKPGKAPKLLIYNAQTEAQGVPSRFSGSGSGTDFTLTISSLQPEDFATYYCQHHYDSPLTFGGGTKVEIKR
As for B2, the binding entry with rhNR10 (human) [1] is on record as “binds”.

B3: H17L11 (H chain H17-M58, L chain L11) (antibody, V domains shown)
VH: QVQLVQSGAEVKKPGASVKVSCKASGYTFTGYVLNWVRQAPGQGLEWMGLINPYNGGTDYNPQFQDRVTITADESTSTAYMELSSLRSEDTAVYYCARDGYDDGPYTMDYWGQGTLVTVSS
VL: DIQMTQSPSSLSASVGDRVTITCQTSEDIYRFVAWYQQKPGKAPKLLIYNAQTEAQGVPSRFSGSGSGTDFTLTISSLQPEDFATYYCQHHYDSPLTFGGGTKVEIKR
With B3, the binding entry with rhNR10 (human) [2] was “binds”.

B4: H42L17 (H chain H42-M58, L chain L17) (antibody, V domains shown)
VH: QVQLVQSGAEVKKPGASVKVSCKASGYTFTGYVLNWVRQAPGQGLEWMGLINPYNGGTDYNPQFQDRVTITADKSTSTAYMELSSLRSEDTAVYYCARDGYDDGPYTLETWGQGTLVTVSS
VL: DIQMTQSPSSLSASVGDRVTITCQASEDIYSFVAWYQQKPGKAPKLLIYNAQTEAQGVPSRFSGSGSGTDFTLTISSLQPEDFATYYCQHHYDSPLTFGGGTKVEIKR
For B4, the binding result in the experiment with rhNR10 (human) [1] was “binds”.

B5: H28L17 (H chain H28-M58, L chain L17) (antibody, V domains shown)
VH: QVQLVQSGAEVKKPGASVKVSCKASGYTFTGYVLNWVRQAPGQGLEWMGLINPYNGGTDYNPQFQDRVTITADESTSTAYMELSSLRSEDTAVYYCARDGYDDGPYTLETWGQGTLVTVSS
VL: DIQMTQSPSSLSASVGDRVTITCQASEDIYSFVAWYQQKPGKAPKLLIYNAQTEAQGVPSRFSGSGSGTDFTLTISSLQPEDFATYYCQHHYDSPLTFGGGTKVEIKR
Consider B5, for which the binding entry with rhNR10 (human) [1] was “binds”.

B6: H78L17 (H chain H78-M58, L chain L17) (antibody, V domains shown)
VH: QVQLVQSGAEVKKPGASVKVSCKASGYTFTGYIMNWVRQAPGQGLEWMGLINPYNGGTDYNPQFQGRVTITADKSTSTAYMELSSLRSEDTAVYYCARDGYDDGPYTLETWGQGTLVTVSS
VL: DIQMTQSPSSLSASVGDRVTITCQASEDIYSFVAWYQQKPGKAPKLLIYNAQTEAQGVPSRFSGSGSGTDFTLTISSLQPEDFATYYCQHHYDSPLTFGGGTKVEIKR
On to B6, for which the binding entry with rhNR10 (human) [1] was “binds”.

B7: H34L17 (H chain H34-M58, L chain L17) (antibody, V domains shown)
VH: QVQLVQSGAEVKKPGASVKVSCKASGYTFTGYAMNWVRQAPGQGLEWMGLINPYNGGTDYNPQFQDRVTITADESTSTAYMELSSLRSEDTAVYYCARDGYDDGPYTLETWGQGTLVTVSS
VL: DIQMTQSPSSLSASVGDRVTITCQASEDIYSFVAWYQQKPGKAPKLLIYNAQTEAQGVPSRFSGSGSGTDFTLTISSLQPEDFATYYCQHHYDSPLTFGGGTKVEIKR
In the case of B7, the binding entry with rhNR10 (human) [1] is listed as “binds”.

B8: H92L17 (H chain H92-M58, L chain L17) (antibody, V domains shown)
VH: QVQLVQSGAEVKKPGASVKVSCKASGYTFTGYAMNWVRQAPGQGLEWMGLINPYNGGTDYNPQFQGRVTITADKSTSTAYMELSSLRSEDTAVYYCARDGYDDGPYTLETWGQGTLVTVSS
VL: DIQMTQSPSSLSASVGDRVTITCQASEDIYSFVAWYQQKPGKAPKLLIYNAQTEAQGVPSRFSGSGSGTDFTLTISSLQPEDFATYYCQHHYDSPLTFGGGTKVEIKR
For the molecule B8, the binding entry in the experiment with rhNR10 (human) [1] is reported as “binds”.

B9: H46L17 (H chain H46-M58, L chain L17) (antibody, V domains shown)
VH: QVQLVQSGAEVKKPGASVKVSCKASGYTFTGYAMNWVRQAPGQGLEWMGLINPYNGGTDYNPQFQDRVTITADKSTSTAYMELSSLRSEDTAVYYCARDGYDDGPYTLETWGQGTLVTVSS
VL: DIQMTQSPSSLSASVGDRVTITCQASEDIYSFVAWYQQKPGKAPKLLIYNAQTEAQGVPSRFSGSGSGTDFTLTISSLQPEDFATYYCQHHYDSPLTFGGGTKVEIKR
Turning to B9, the binding result with rhNR10 (human) [1] was “binds”.

B10: Ha401La402 (H chain Ha401-SKSC, L chain La402) (antibody, V domains shown)
VH: QVQLVQSGAEVKKPGASVKVSCKASGYTFTGYVINWVRQAPGQGLEWMGLINPYNGGTDYNQKFKGRVTITADESTSTAYMELSSLRSEDTAVYYCARDGYDDGPYTMDYWGQGTLVTVSS
VL: DIQMTQSPSSLSASVGDRVTITCQTSENIYRFVAWYQQKPGKAPKLLIYNAKTLAKGVPSRFSGSGSGTDFTLTISSLQPEDFATYYCQHHYDSPLTFGGGTKVEIKR
As for B10, in the experiment with rhNR10 (human) [1], the binding result is “binds”.

B11: H30L17 (H chain H30-M58, L chain L17) (antibody, V domains shown)
VH: QVQLVQSGAEVKKPGASVKVSCKASGYTFTGYIMNWVRQAPGQGLEWMGLINPYNGGTDYNPQFQDRVTITADESTSTAYMELSSLRSEDTAVYYCARDGYDDGPYTLETWGQGTLVTVSS
VL: DIQMTQSPSSLSASVGDRVTITCQASEDIYSFVAWYQQKPGKAPKLLIYNAQTEAQGVPSRFSGSGSGTDFTLTISSLQPEDFATYYCQHHYDSPLTFGGGTKVEIKR
B11: the binding entry with rhNR10 (human) [1] is “binds”.

B12: H98L50 (H chain H98-M58, L chain L50) (antibody, V domains shown)
VH: QVQLVQSGAEVKKPGASVKVSCKASGYTFTGYIMNWVRQAPGQGLEWMGLINPYNGGTSYNQQFQDRVTITADKSTSTAYMELSSLRSEDTAVYYCARDGYDDGPYTLETWGQGTLVTVSS
VL: DIQMTQSPSSLSASVGDRVTITCQASEDIYSFLAWYQQKPGKAPKLLIYNAQTEAQGVPSRFSGSGSGTDFTLTISSLQPEDFATYYCQHHYDSPLTFGGGTKVEIKR
As for B12, the binding result with rhNR10 (human) [1] is reported as “binds”.

B13: H57L17 (H chain H57-M58, L chain L17) (antibody, V domains shown)
VH: QVQLVQSGAEVKKPGASVKVSCKASGYTFTGYIMNWVRQAPGQGLEWMGLINPYNGGTDYNPQFQGRVTITADESTSTAYMELSSLRSEDTAVYYCARDGYDDGPYTLETWGQGTLVTVSS
VL: DIQMTQSPSSLSASVGDRVTITCQASEDIYSFVAWYQQKPGKAPKLLIYNAQTEAQGVPSRFSGSGSGTDFTLTISSLQPEDFATYYCQHHYDSPLTFGGGTKVEIKR
Consider B13, for which the binding entry with rhNR10 (human) [1] is “binds”.

B14: H19L12 (H chain H19-M58, L chain L12) (antibody, V domains shown)
VH: QVQLVQSGAEVKKPGASVKVSCKASGYTFTGYAMNWVRQAPGQGLEWMGLINPYNGGTDYNPQFQDRVTITADESTSTAYMELSSLRSEDTAVYYCARDGYDDGPYTMDYWGQGTLVTVSS
VL: DIQMTQSPSSLSASVGDRVTITCQTSEDIYSFVAWYQQKPGKAPKLLIYNAQTEAQGVPSRFSGSGSGTDFTLTISSLQPEDFATYYCQHHYDSPLTFGGGTKVEIKR
Turning to B14, the binding entry with rhNR10 (human) [1] was “binds”.

B15: H44L17 (H chain H44-M58, L chain L17) (antibody, V domains shown)
VH: QVQLVQSGAEVKKPGASVKVSCKASGYTFTGYIMNWVRQAPGQGLEWMGLINPYNGGTDYNPQFQDRVTITADKSTSTAYMELSSLRSEDTAVYYCARDGYDDGPYTLETWGQGTLVTVSS
VL: DIQMTQSPSSLSASVGDRVTITCQASEDIYSFVAWYQQKPGKAPKLLIYNAQTEAQGVPSRFSGSGSGTDFTLTISSLQPEDFATYYCQHHYDSPLTFGGGTKVEIKR
Regarding B15, in the experiment with rhNR10 (human) [1], the binding result is recorded as “binds”.

B16: H97L50 (H chain H97-M58, L chain L50) (antibody, V domains shown)
VH: QVQLVQSGAEVKKPGASVKVSCKASGYTFTGYIMNWVRQAPGQGLEWMGLINPYNGGTSYNQQFQDRVTITADESTSTAYMELSSLRSEDTAVYYCARDGYDDGPYTLETWGQGTLVTVSS
VL: DIQMTQSPSSLSASVGDRVTITCQASEDIYSFLAWYQQKPGKAPKLLIYNAQTEAQGVPSRFSGSGSGTDFTLTISSLQPEDFATYYCQHHYDSPLTFGGGTKVEIKR
Consider B16, for which, in the experiment with rhNR10 (human) [1], the binding result is “binds”.

B17: H71L17 (H chain H71-M58, L chain L17) (antibody, V domains shown)
VH: QVQLVQSGAEVKKPGASVKVSCKASGYTFTGYAMNWVRQAPGQGLEWMGLINPYNGGTDYNPQFQGRVTITADESTSTAYMELSSLRSEDTAVYYCARDGYDDGPYTLETWGQGTLVTVSS
VL: DIQMTQSPSSLSASVGDRVTITCQASEDIYSFVAWYQQKPGKAPKLLIYNAQTEAQGVPSRFSGSGSGTDFTLTISSLQPEDFATYYCQHHYDSPLTFGGGTKVEIKR
As to B17, the binding entry in the experiment with rhNR10 (human) [1] was “binds”.
